Patent US6913892
No constants are given. Whether binding was seen depends on the method and setting. Some binding calls cover weakened binding; strength is not graded here.

By UniProt entry, the sequences of proteins in these tests, tags left out. Where a name states a change or a piece, a line headed by the entry shows the natural chain unless it says otherwise. Residues count along the entry.
UniProt P0DQD5: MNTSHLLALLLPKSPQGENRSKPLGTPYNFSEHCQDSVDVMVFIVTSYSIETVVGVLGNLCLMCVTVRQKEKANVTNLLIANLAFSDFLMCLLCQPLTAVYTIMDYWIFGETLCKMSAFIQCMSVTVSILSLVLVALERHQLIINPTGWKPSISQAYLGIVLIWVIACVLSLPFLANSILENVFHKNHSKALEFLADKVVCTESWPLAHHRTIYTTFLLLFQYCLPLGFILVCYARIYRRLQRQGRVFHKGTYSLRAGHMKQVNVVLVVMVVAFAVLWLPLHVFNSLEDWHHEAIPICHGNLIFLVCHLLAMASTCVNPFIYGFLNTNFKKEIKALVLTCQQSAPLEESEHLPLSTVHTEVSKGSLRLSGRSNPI
UniProt P10082, residues 31-64: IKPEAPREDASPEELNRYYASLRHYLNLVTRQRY

Target: human Y4 receptor (human) (UniProt P0DQD5)
Test: 125I-PYY displacement, COS-7 membranes

## PYY3-36, human (from UniProt P10082 31-64) (peptide)
  binding: binds
